Measurements as given in patent US7612250B2, “Nuclear transfer embryo formation method” (Trustees of Tufts College, priority 2002, dated 2009).
Like-named read-outs stand apart in the source and are kept apart here. Marks after values point to notes of the source that are not given here.

How the values were obtained:
[1] = test system: B6D2F1 and CF-1 mouse oocytes
bovine oocytes = details: evaluated at 5 hpa
[2] = test system: B6D2F1 and CF-1 mouse oocytes; remark: listed apart in the source
[3] = test system: B6D2F1 and CF-1 mouse oocytes; remark: listed apart in the source
goat oocytes = details: 7% ethanol activation
[4] = B6D2F1, Deme 0 (demecolcine from 0 min p.a.), 45 min p.a.
[5] = B6D2F1, Deme 0 (demecolcine from 0 min p.a.), 75 min p.a.
[6] = B6D2F1, Deme 0 (demecolcine from 0 min p.a.), 105 min p.a.
[7] = B6D2F1, Deme 0 (demecolcine from 0 min p.a.), 135 min p.a.
[8] = B6D2F1, Deme 10 (demecolcine from 10 min p.a.), 45 min p.a.
[9] = B6D2F1, Deme 10 (demecolcine from 10 min p.a.), 75 min p.a.
[10] = B6D2F1, Deme 10 (demecolcine from 10 min p.a.), 105 min p.a.
[11] = B6D2F1, Deme 10 (demecolcine from 10 min p.a.), 135 min p.a.
[12] = B6D2F1, Deme 15 (demecolcine from 15 min p.a.), 45 min p.a.
[13] = B6D2F1, Deme 15 (demecolcine from 15 min p.a.), 75 min p.a.
[14] = B6D2F1, Deme 15 (demecolcine from 15 min p.a.), 105 min p.a.
[15] = B6D2F1, Deme 15 (demecolcine from 15 min p.a.), 135 min p.a.
[16] = CF-1, Deme 0 (demecolcine from 0 min p.a.), 45 min p.a.
[17] = CF-1, Deme 0 (demecolcine from 0 min p.a.), 75 min p.a.
[18] = CF-1, Deme 0 (demecolcine from 0 min p.a.), 105 min p.a.
[19] = CF-1, Deme 0 (demecolcine from 0 min p.a.), 135 min p.a.
[20] = CF-1, Deme 5 (demecolcine from 5 min p.a.), 45 min p.a.
[21] = CF-1, Deme 5 (demecolcine from 5 min p.a.), 75 min p.a.
[22] = CF-1, Deme 5 (demecolcine from 5 min p.a.), 105 min p.a.
[23] = CF-1, Deme 5 (demecolcine from 5 min p.a.), 135 min p.a.
[24] = CF-1, Deme 10 (demecolcine from 10 min p.a.), 45 min p.a.
[25] = CF-1, Deme 10 (demecolcine from 10 min p.a.), 75 min p.a.
[26] = CF-1, Deme 10 (demecolcine from 10 min p.a.), 105 min p.a.
[27] = CF-1, Deme 10 (demecolcine from 10 min p.a.), 135 min p.a.
[28] = CF-1, Deme 15 (demecolcine from 15 min p.a.), 45 min p.a.
[29] = CF-1, Deme 15 (demecolcine from 15 min p.a.), 75 min p.a.
[30] = CF-1, Deme 15 (demecolcine from 15 min p.a.), 105 min p.a.
[31] = CF-1, Deme 15 (demecolcine from 15 min p.a.), 135 min p.a.

## CN[C@H]1CCc2cc(OC)c(OC)c(OC)c2-c2ccc(OC)c(=O)cc21 [demecolcine]
[1]; [4]
  activated oocytes: 96%
[1]; [5]
  activated oocytes: 98%
[1]; [6]
  activated oocytes: 96%
[1]; [7]
  activated oocytes: 96%
[1]; B6D2F1, Deme 5 (demecolcine from 5 min p.a.), 45 min p.a.
  activated oocytes: 98%
[1]; B6D2F1, Deme 5 (demecolcine from 5 min p.a.), 75 min p.a.
  activated oocytes: 94%
[1]; B6D2F1, Deme 5 (demecolcine from 5 min p.a.), 105 min p.a.
  activated oocytes: 100%
[1]; B6D2F1, Deme 5 (demecolcine from 5 min p.a.), 135 min p.a.
  activated oocytes: 94.5%
[1]; [8]
  activated oocytes: 94%
[1]; [9]
  activated oocytes: 98.1%
[1]; [10]
  activated oocytes: 100%
[1]; [11]
  activated oocytes: 100%
[1]; [12]
  activated oocytes: 97.9%
[1]; [13]
  activated oocytes: 96%
[1]; [14]
  activated oocytes: 94%
[1]; [15]
  activated oocytes: 98%
[1]; [16]
  activated oocytes: 92%
[1]; [17]
  activated oocytes: 98^a %
[1]; [18]
  activated oocytes: 100^a %
[1]; [19]
  activated oocytes: 95.9%
[1]; [20]
  activated oocytes: 82%
[1]; [21]
  activated oocytes: 76^b %
[1]; [22]
  activated oocytes: 84.3^b %
[1]; [23]
  activated oocytes: 98%
[1]; [24]
  activated oocytes: 80%
[1]; [25]
  activated oocytes: 84^b %
[1]; [26]
  activated oocytes: 96^a,b %
[1]; [27]
  activated oocytes: 94.7%
[1]; [28]
  activated oocytes: 94.2%
[1]; [29]
  activated oocytes: 100^a %
[1]; [30]
  activated oocytes: 96.1^a,b %
[1]; [31]
  activated oocytes: 95.9%
[1]; all groups of demecolcine-treated oocytes, both strains, 45 min p.a.
  rates of activation: 80-98%
[1]; mouse oocytes, both strains (B6D2F1, CF 1), Example 4
  activation rates: 89-10096
Bovine oocytes; DM 0.4 μg/ml from 1, 1.5 or 2 hpa
  activation rates: 79-100%
Bovine oocytes; DM 0.4 μg/ml from 30 min pa
  activation rates: 10-16%
[2]; B6D2F1
  maximum enucleation rate of total activated oocytes: 6.9%
[2]; CF-1
  maximum enucleation rate of total activated oocytes: 21%
[2]; CF-1, all activated oocytes
  overall enucleation efficiency: ~20%
[3]; [4]
  activated oocytes with a partially or completely rotated spindle: 37.5^b %
[3]; [5]
  activated oocytes with a partially or completely rotated spindle: 30.6^b %
[3]; [6]
  activated oocytes with a partially or completely rotated spindle: 0^b %
[3]; [7]
  activated oocytes with a partially or completely rotated spindle: 8.3^b %
[3]; [8]
  activated oocytes with a partially or completely rotated spindle: 29.8^b %
[3]; [9]
  activated oocytes with a partially or completely rotated spindle: 47.2^b %
[3]; [10]
  activated oocytes with a partially or completely rotated spindle: 7.7^b %
[3]; [11]
  activated oocytes with a partially or completely rotated spindle: 9.6^b %
[3]; [12]
  activated oocytes with a partially or completely rotated spindle: 30.4^b %
[3]; [13]
  activated oocytes with a partially or completely rotated spindle: 41.7^b %
[3]; [14]
  activated oocytes with a partially or completely rotated spindle: 34.0^c %
[3]; [15]
  activated oocytes with a partially or completely rotated spindle: 4.O^b
[3]; B6D2F1, DemeS (demecolcine from 5 min p.a.), 45 min p.a.
  activated oocytes with a partially or completely rotated spindle: 26.5^b %
[3]; B6D2F1, DemeS (demecolcine from 5 min p.a.), 75 min p.a.
  activated oocytes with a partially or completely rotated spindle: 38.3^b %
[3]; B6D2F1, DemeS (demecolcine from 5 min p.a.), 105 min p.a.
  activated oocytes with a partially or completely rotated spindle: 3.6^b %
[3]; B6D2F1, DemeS (demecolcine from 5 min p.a.), 135 min p.a.
  activated oocytes with a partially or completely rotated spindle: 7.7^b %
[3]; [16]
  activated oocytes with a partially or completely rotated spindle: 0^b %
[3]; [17]
  activated oocytes with a partially or completely rotated spindle: 0^b %
[3]; [18]
  activated oocytes with a partially or completely rotated spindle: 0^b %
[3]; [19]
  activated oocytes with a partially or completely rotated spindle: 0^b %
[3]; [20]
  activated oocytes with a partially or completely rotated spindle: 4.4^b %
[3]; [21]
  activated oocytes with a partially or completely rotated spindle: 2.6^b.c %
[3]; [22]
  activated oocytes with a partially or completely rotated spindle: 2.3^b %
[3]; [23]
  activated oocytes with a partially or completely rotated spindle: 4^b %
[3]; [24]
  activated oocytes with a partially or completely rotated spindle: 2.5^b %
[3]; [25]
  activated oocytes with a partially or completely rotated spindle: 2.4^b,c %
[3]; [26]
  activated oocytes with a partially or completely rotated spindle: 4.2^b %
[3]; [27]
  activated oocytes with a partially or completely rotated spindle: 1.8^b %
[3]; [28]
  activated oocytes with a partially or completely rotated spindle: 6.1^b %
[3]; [29]
  activated oocytes with a partially or completely rotated spindle: 13.2^c %
[3]; [30]
  activated oocytes with a partially or completely rotated spindle: 6.1^b %
[3]; [31]
  activated oocytes with a partially or completely rotated spindle: 2.1^b %
Goat oocytes
  activation rates: 69-94%
